Source: patent US20070009975A1
No constants are given. Whether binding was seen depends on the method and setting. Some entries that bind do so weakly or less than the wild type.

Chains of the proteins cited; added tags and fusions are not shown.
UniProt P42383: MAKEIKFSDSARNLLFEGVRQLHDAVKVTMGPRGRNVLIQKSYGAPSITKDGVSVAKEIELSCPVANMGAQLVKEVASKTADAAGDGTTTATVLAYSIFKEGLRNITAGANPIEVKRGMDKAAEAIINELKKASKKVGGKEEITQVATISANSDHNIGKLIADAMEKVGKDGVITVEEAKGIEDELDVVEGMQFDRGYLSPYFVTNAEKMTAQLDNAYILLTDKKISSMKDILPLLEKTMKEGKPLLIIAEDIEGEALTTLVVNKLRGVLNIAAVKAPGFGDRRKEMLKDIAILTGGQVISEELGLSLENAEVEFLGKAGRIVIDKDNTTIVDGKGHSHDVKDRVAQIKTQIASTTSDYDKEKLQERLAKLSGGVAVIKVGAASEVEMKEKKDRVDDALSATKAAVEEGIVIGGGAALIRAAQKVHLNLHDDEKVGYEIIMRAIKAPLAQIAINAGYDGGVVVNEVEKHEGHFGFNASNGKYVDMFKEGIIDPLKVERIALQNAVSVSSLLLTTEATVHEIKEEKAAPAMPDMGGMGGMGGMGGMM

Tests used:
[1] = target: T1, alkylhydroperoxide-reductase of H. pylori (26 kDa-protein) (Helicobacter pylori) (UniProt P21762); experiment: Ag-specificity column of Table 2; mAbs selected by direct ELISA on the antigen (Example 4)
T1 sequence (looked up): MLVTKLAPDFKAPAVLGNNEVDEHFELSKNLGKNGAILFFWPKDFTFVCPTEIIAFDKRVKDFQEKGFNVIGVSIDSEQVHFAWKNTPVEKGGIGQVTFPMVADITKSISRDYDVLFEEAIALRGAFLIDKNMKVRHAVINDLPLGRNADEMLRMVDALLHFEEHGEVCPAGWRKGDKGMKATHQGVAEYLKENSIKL

[2] = target: T1, alkylhydroperoxide-reductase of H. pylori (26 kDa-protein) (Helicobacter pylori); experiment: immunoblot on purified antigen (reducing SDS-PAGE), hybridoma supernatant
[3] = target: T1, alkylhydroperoxide-reductase of H. pylori (26 kDa-protein) (Helicobacter pylori); experiment: immunoblot on H. pylori lysate (reducing SDS-PAGE), hybridoma supernatant
[4] = target: Hsp60 of H. pylori (Helicobacter pylori) (UniProt P42383); experiment: Ag-specificity column of Table 2; mAbs selected by direct ELISA on the antigen (Example 4)
[5] = target: Hsp60 of H. pylori (Helicobacter pylori) (UniProt P42383); experiment: immunoblot on purified antigen (reducing SDS-PAGE), hybridoma supernatant
[6] = target: Hsp60 of H. pylori (Helicobacter pylori) (UniProt P42383); experiment: immunoblot on H. pylori lysate (reducing SDS-PAGE), hybridoma supernatant

Measured: binding

B1: HP15m/3E8-D9-D6 (antibody, IgG1, V domains shown)
VH: VQLLEESGGGLVQPTGSLKLSCAASGFTFNSYAMYWVRQAPGKGLEWVARIRSKSDNYATYYANSVKDRLTISRDDSQNMLYLQMNNLKTEDTAMYYCVRDHDKFPFYYALDYWGPGTLVTVSS
VL: ELVLTQSPTIMSASLGERVTMTCTASSSVSSSYLHWYQQKPGSSPKLWIYSTSNLASGVPVRFSGSGSVTSYSLTISSMEAEDAATYYCHQYHRSPPTFGGGTKLEIK
binds: [1] | [2] | [3]

B2: HP16m/2A5-E6-E5 (antibody, mouse IgG1, V domains shown)
VH: VQLLEESGPGLVAPSQSLSITCTVSGFSLSRYSVHWVRQPPGKGLEWLGMIWGGGSTDYNSGLKSRLSISNDNSKSQVFLKMNSLQTDDTAIYYCARNMGGRYPDYFDYWGQGTTLTVSS
VL: DIVLTQSPASLAVSLGQRATISCRASKSVSTSGYSYIHWYQQKPGQPPKLLIFLASNLESGVPARFSGSGSGTDFTLNIHPVEEEDAATYHCQHSRELPLTFGAGTKLELK
binds: [4] | [5] | [6]
